Some results were stated once for a whole list of compounds, not compound by compound.
Assays:
[1] = test system: barley scald fungus (Rhynchosporiumsecalis); assay: Test Example 8: barley scald control, foliar spray on barley; assay type: in vivo, Rhynchosporium secalis; conditions: 200 ppm, barley (NISHINOHOSHI), inoculated 2 days after spraying
[2] = test system: kidney bean stem rot fungus (Sclerotinia sclerotiorum); assay: Test Example 4: kidney bean stem rot control, foliar spray on kidney bean; conditions: 500 ppm, kidney bean (NAGAUZURA SAITOU), four days after the inoculation
[3] = test system: wheat rust fungus (Puccinia recondita); assay: Test Example 2: wheat rust control, foliar spray on wheat; assay type: in vivo; conditions: 500 ppm, wheat (SHIROGANE), inoculated 5 days after spraying
[4] = test system: cucumber anthracnose fungus (Colletotrichum lagenarium); assay: Test Example 10: cucumber anthracnose control, foliar spray on cucumber; assay type: in vivo; conditions: 200 ppm, cucumber (SAGAMI HANJIRO), inoculated one day after spraying
[5] = test system: soybean rust fungus (Phakopsora pachyrhizi); assay: Test Example 7: soybean rust control, foliar spray on soybean; assay type: in vivo; conditions: 200 ppm, soybean (KUROSENGOKU), inoculated 2 days after spraying
[6] = test system: barley net blotch fungus (Pyrenophora teres); assay: Test Example 3: barley net blotch control, foliar spray on barley; assay type: in vivo; conditions: 500 ppm, barley (NISHINOHOSHI), inoculated 2 days after spraying
[7] = test system: rice blast fungus (Magnaporthe grisea); assay type: in vivo; conditions: 500 ppm, foliar spray, rice (NIHONBARE), 6 days in contact with infected seedling
[8] = test system: wheat leaf blotch fungus (Septoria tritici); assay: Test Example 5: wheat leaf blotch control, foliar spray on wheat; assay type: in vivo; conditions: 200 ppm, wheat (APOGEE), inoculated 4 days after spraying
[9] = test system: cotton aphid (Aphis gossypii); assay: Test Example 11: cotton aphid control on cucumber leaves, spray; assay type: in vivo; conditions: 500 ppm active ingredient (formulation per Formulation Example 2), 20 mL sprayed, surviving insects counted after 6 days

COC(=O)Nc1cc(C)ccc1COc1ccc(-c2nn(C)c(F)c2C)cc1C [Present Compound 30]
area of lesion on treated plant relative to that on an untreated plant [1]: ≤ 30% | area of lesion on treated plant relative to that on an untreated plant [2]: ≤ 30% | area of lesion on treated plant relative to that on an untreated plant [3]: ≤ 30% | area of lesion on treated plant relative to that on an untreated plant [4]: ≤ 30% | area of lesion on treated plant relative to that on an untreated plant [5]: ≤ 30% | area of lesion on treated plant relative to that on an untreated plant [6]: ≤ 30%

CCOC(=O)Nc1cccc(C)c1COc1ccc(-c2nn(C)c(Cl)c2C)cc1C [Present Compound 42]
area of lesion on treated plant relative to that on an untreated plant [3]: ≤ 30%

COC(=O)Nc1cccc(Br)c1COc1ccc(-c2nn(C)c(Cl)c2C)cc1C [Present Compound 15]
area of lesion on treated plant relative to that on an untreated plant [1]: ≤ 30% | area of lesion on treated plant relative to that on an untreated plant [2]: ≤ 30% | area of lesion on treated plant relative to that on an untreated plant [3]: ≤ 30% | area of lesion on treated plant relative to that on an untreated plant [4]: ≤ 30% | area of lesion on treated plant relative to that on an untreated plant [5]: ≤ 30% | area of lesion on treated plant relative to that on an untreated plant [6]: ≤ 30%

COC(=O)Nc1cccc(C)c1COc1ccc(-c2nn(C)c(Cl)c2C)cc1C [Present Compound 4]
lesion area on treated plant with respect to the lesion area on the non-treated plant [7]: ≤ 30% | area of lesion on treated plant relative to that on an untreated plant [3]: ≤ 30% | area of lesion on treated plant relative to that on an untreated plant [6]: ≤ 30%

COC(=O)Nc1cccc(F)c1COc1ccc(-c2nn(C)c(Cl)c2C)cc1C [Present Compound 16]
area of lesion on treated plant relative to that on an untreated plant [1]: ≤ 30% | area of lesion on treated plant relative to that on an untreated plant [2]: ≤ 30% | area of lesion on treated plant relative to that on an untreated plant [3]: ≤ 30% | area of lesion on treated plant relative to that on an untreated plant [4]: ≤ 30% | area of lesion on treated plant relative to that on an untreated plant [5]: ≤ 30% | area of lesion on treated plant relative to that on an untreated plant [6]: ≤ 30%

COC(=O)Nc1cccc(OC)c1COc1ccc(-c2nn(C)c(F)c2C)cc1C [Present Compound 22]
area of lesion on treated plant relative to that on an untreated plant [1]: ≤ 30% | lesion area on treated plant with respect to the lesion area on the non-treated plant [7]: ≤ 30% | area of lesion on treated plant relative to that on an untreated plant [2]: ≤ 30% | area of lesion on treated plant relative to that on an untreated plant [3]: ≤ 30% | area of lesion on treated plant relative to that on an untreated plant [8]: ≤ 30% | area of lesion on treated plant relative to that on an untreated plant [4]: ≤ 30% | area of lesion on treated plant relative to that on an untreated plant [5]: ≤ 30% | area of lesion on treated plant relative to that on an untreated plant [6]: ≤ 30%

CCOc1cccc(NC(=O)OC)c1COc1ccc(-c2nn(C)c(Cl)c2C)cc1C [Present Compound 18]
area of lesion on treated plant relative to that on an untreated plant [1]: ≤ 30% | area of lesion on treated plant relative to that on an untreated plant [3]: ≤ 30% | area of lesion on treated plant relative to that on an untreated plant [4]: ≤ 30% | area of lesion on treated plant relative to that on an untreated plant [5]: ≤ 30% | area of lesion on treated plant relative to that on an untreated plant [6]: ≤ 30%

CSC(=O)Nc1cccc(C)c1COc1ccc(-c2nn(C)c(F)c2C)cc1C [Present Compound 44]
area of lesion on treated plant relative to that on an untreated plant [3]: ≤ 30%

COC(=O)Nc1cccc(C)c1COc1ccc(-c2nn(C)c(F)c2C(F)F)cc1C [Present Compound 33]
area of lesion on treated plant relative to that on an untreated plant [1]: ≤ 30% | lesion area on treated plant with respect to the lesion area on the non-treated plant [7]: ≤ 30% | area of lesion on treated plant relative to that on an untreated plant [2]: ≤ 30% | area of lesion on treated plant relative to that on an untreated plant [3]: ≤ 30% | area of lesion on treated plant relative to that on an untreated plant [8]: ≤ 30% | area of lesion on treated plant relative to that on an untreated plant [4]: ≤ 30% | area of lesion on treated plant relative to that on an untreated plant [5]: ≤ 30% | area of lesion on treated plant relative to that on an untreated plant [6]: ≤ 30%

COC(=O)Nc1ccccc1COc1ccc(-c2nn(C)c(Cl)c2C)cc1C [Present Compound 3]
lesion area on treated plant with respect to the lesion area on the non-treated plant [7]: ≤ 30% | area of lesion on treated plant relative to that on an untreated plant [3]: ≤ 30%

COC(=O)Nc1cc(C)ccc1COc1ccc(-c2nn(C)c(Cl)c2C)cc1C [Present Compound 28]
area of lesion on treated plant relative to that on an untreated plant [1]: ≤ 30% | area of lesion on treated plant relative to that on an untreated plant [2]: ≤ 30% | control value [9]: ≥ 90% | area of lesion on treated plant relative to that on an untreated plant [8]: ≤ 30% | area of lesion on treated plant relative to that on an untreated plant [4]: ≤ 30% | area of lesion on treated plant relative to that on an untreated plant [5]: ≤ 30% | area of lesion on treated plant relative to that on an untreated plant [6]: ≤ 30%

COC(=O)Nc1ccccc1COc1ccc(-c2nn(C)c(OC)c2Cl)cc1C [Present Compound 2]
lesion area on treated plant with respect to the lesion area on the non-treated plant [7]: ≤ 30% | area of lesion on treated plant relative to that on an untreated plant [3]: ≤ 30% | area of lesion on treated plant relative to that on an untreated plant [6]: ≤ 30%

COC(=O)Nc1cccc(Cl)c1COc1ccc(-c2nn(C)c(Cl)c2C)cc1C [Present Compound 17]
area of lesion on treated plant relative to that on an untreated plant [1]: ≤ 30% | area of lesion on treated plant relative to that on an untreated plant [3]: ≤ 30% | area of lesion on treated plant relative to that on an untreated plant [4]: ≤ 30% | area of lesion on treated plant relative to that on an untreated plant [5]: ≤ 30% | area of lesion on treated plant relative to that on an untreated plant [6]: ≤ 30%

C=C(C)c1cccc(NC(=O)OC)c1COc1ccc(-c2nn(C)c(Cl)c2C)cc1C [Present Compound 23]
area of lesion on treated plant relative to that on an untreated plant [1]: ≤ 30% | area of lesion on treated plant relative to that on an untreated plant [2]: ≤ 30% | area of lesion on treated plant relative to that on an untreated plant [6]: ≤ 30%

COC(=O)N(C)c1cccc(C)c1COc1ccc(-c2nn(C)c(Cl)c2C)cc1C [Present Compound 9]
lesion area on treated plant with respect to the lesion area on the non-treated plant [7]: ≤ 30% | area of lesion on treated plant relative to that on an untreated plant [3]: ≤ 30% | area of lesion on treated plant relative to that on an untreated plant [6]: ≤ 30%

COC(=O)Nc1cccc(C2CC2)c1COc1ccc(-c2nn(C)c(F)c2C)cc1C [Present Compound 20]
area of lesion on treated plant relative to that on an untreated plant [1]: ≤ 30% | lesion area on treated plant with respect to the lesion area on the non-treated plant [7]: ≤ 30% | area of lesion on treated plant relative to that on an untreated plant [3]: ≤ 30% | area of lesion on treated plant relative to that on an untreated plant [8]: ≤ 30% | area of lesion on treated plant relative to that on an untreated plant [4]: ≤ 30% | area of lesion on treated plant relative to that on an untreated plant [5]: ≤ 30% | area of lesion on treated plant relative to that on an untreated plant [6]: ≤ 30%

COC(=O)Nc1c(C)cccc1COc1ccc(-c2nn(C)c(Cl)c2C)cc1C [Present Compound 24]
area of lesion on treated plant relative to that on an untreated plant [1]: ≤ 30% | lesion area on treated plant with respect to the lesion area on the non-treated plant [7]: ≤ 30% | area of lesion on treated plant relative to that on an untreated plant [2]: ≤ 30% | area of lesion on treated plant relative to that on an untreated plant [3]: ≤ 30% | area of lesion on treated plant relative to that on an untreated plant [8]: ≤ 30% | area of lesion on treated plant relative to that on an untreated plant [4]: ≤ 30% | area of lesion on treated plant relative to that on an untreated plant [5]: ≤ 30% | area of lesion on treated plant relative to that on an untreated plant [6]: ≤ 30%

CNC(=O)C(O)c1ccccc1COc1ccc(-c2nn(C)c(Cl)c2C)cc1C (stereo not shown) [Present Compound 13]
lesion area on treated plant with respect to the lesion area on the non-treated plant [7]: ≤ 30% | area of lesion on treated plant relative to that on an untreated plant [3]: ≤ 30%

COC(=O)Nc1c(F)cccc1COc1ccc(-c2nn(C)c(Cl)c2C)cc1C [Present Compound 26]
area of lesion on treated plant relative to that on an untreated plant [1]: ≤ 30% | lesion area on treated plant with respect to the lesion area on the non-treated plant [7]: ≤ 30% | area of lesion on treated plant relative to that on an untreated plant [2]: ≤ 30% | area of lesion on treated plant relative to that on an untreated plant [3]: ≤ 30% | area of lesion on treated plant relative to that on an untreated plant [4]: ≤ 30% | area of lesion on treated plant relative to that on an untreated plant [5]: ≤ 30% | area of lesion on treated plant relative to that on an untreated plant [6]: ≤ 30%

— patent publication US9788547B2, “Aromatic compound and uses thereof” (SUMITOMO CHEMICAL COMPANY, LIMITED, priority 2014, dated 2017)
